This is an account of results in patent US10370327B2, “Ionic liquid films with multiple functionalities for surface modification of biomedical alloys” (BOARD OF REGENTS, THE UNIVERSITY OF TEXAS SYSTEM, priority 2014, dated 2019).

The nature of series [1]: AFM adhesion strength of IL coating on Ti. To be noted: IL-coated Ti.
Series [2] in a line: Pin-on-disk tribology of IL-coated Ti against Ti6Al4V ball. The conditions noted are these: 10N, 2 Hz, 2000 cycles.

As for `C[n+]1ccn(CCCCCCCCCCn2cc[n+](C)c2)c1.NC(Cc1ccccc1)C(=O)[O-].NC(Cc1ccccc1)C(=O)[O-]` [IL-9, 1,10-Bis(3-methylimidazolium-1-yl)decane diphenylalanine], the Coating adhesion strength result in series [1] is listed as “around 73.5 nN”. This molecule also showed a Friction coefficient in series [2] of 0.1. Turning to `CSCC[C@H](N)C(=O)O.CSCC[C@H](N)C(=O)O.C[n+]1ccn(CCCCCCCCCCn2cc[n+](C)c2)c1` [IL-12, 1,10-Bis(3-methylimidazolium-1-yl)decane dimethionine], the Coating adhesion strength in series [1] is 46.2 nN.
